Data as given in PubChem BioAssay AID1224830 (NIAID, 2016).

- Test: 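Host factors that control LPS-induced TNF expression in human macrophages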 (primary screen)
- System: human THP-1 monocytic leukaemia cells, TNF dual-luciferase reporter clone, PMA-differentiated to macrophage-like cells
- Reagent: siRNA pool against human genes, 50 nM
- Timing: LPS for 4 h, given about 3 days after siRNA transfection
- Treatment: bacterial LPS (TLR4 ligand), 10 ng/ml
- Detection: 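TNF firefly reporter luminescence divided by renilla, normalised to the plate median, then turned into a robust z-score for each replicate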
- Direction: TNF reporter robust z-score: higher = stronger TNF reporter response to LPS
- Call rule: 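Each well counts as active if its z-score is over 2.8 or under -1.5; controls are left without a call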
The whole screen tested about 18,000 reagents; shown is a random part of them. About 2,900 of them (16%) were called active. 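Calls are made per well; low scores hint the gene aids the LPS response, high scores that it dampens it.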 Repeated entries: four replicate wells of each siRNA pool.

TNF reporter robust z-score	Outcome	gene	PubChem SID
-1.24	inactive	CLDN19 (claudin 19)	SID315462413
-0.85	inactive	CLDN19 (claudin 19)	SID315462413
-1.3	inactive	CLDN19 (claudin 19)	SID315462413
-0.9	inactive	CLDN19 (claudin 19)	SID315462413
-1.04	inactive	CCM2 (CCM2 scaffold protein)	SID315460034
0.32	inactive	CCM2 (CCM2 scaffold protein)	SID315460034
0.44	inactive	CCM2 (CCM2 scaffold protein)	SID315460034
-0.02	inactive	CCM2 (CCM2 scaffold protein)	SID315460034
1.78	inactive	SH2D2A (SH2 domain containing 2A)	SID315452998
1.82	inactive	SH2D2A (SH2 domain containing 2A)	SID315452998
1.74	inactive	SH2D2A (SH2 domain containing 2A)	SID315452998
1.8	inactive	SH2D2A (SH2 domain containing 2A)	SID315452998
-1.49	inactive	OR4N5 (olfactory receptor family 4 subfamily N member 5)	SID315464646
5.14	active	OR4N5 (olfactory receptor family 4 subfamily N member 5)	SID315464646
-1.38	inactive	OR4N5 (olfactory receptor family 4 subfamily N member 5)	SID315464646
-1.42	inactive	OR4N5 (olfactory receptor family 4 subfamily N member 5)	SID315464646
-0.42	inactive	DYNLL1 (dynein light chain LC8-type 1)	SID315452721
-0.76	inactive	DYNLL1 (dynein light chain LC8-type 1)	SID315452721
-1.18	inactive	DYNLL1 (dynein light chain LC8-type 1)	SID315452721
-1.02	inactive	DYNLL1 (dynein light chain LC8-type 1)	SID315452721
0.55	inactive	PRMT3 (protein arginine methyltransferase 3)	SID315453894
0.84	inactive	PRMT3 (protein arginine methyltransferase 3)	SID315453894
0.44	inactive	PRMT3 (protein arginine methyltransferase 3)	SID315453894
0.68	inactive	PRMT3 (protein arginine methyltransferase 3)	SID315453894
0.62	inactive	KRT6C (keratin 6C)	SID315463928
0.4	inactive	KRT6C (keratin 6C)	SID315463928
0.39	inactive	KRT6C (keratin 6C)	SID315463928
0.77	inactive	KRT6C (keratin 6C)	SID315463928
-1.19	inactive	SPATA31E1 (SPATA31 subfamily E member 1)	SID315463907
-0.88	inactive	SPATA31E1 (SPATA31 subfamily E member 1)	SID315463907
-0.5	inactive	SPATA31E1 (SPATA31 subfamily E member 1)	SID315463907
-0.69	inactive	SPATA31E1 (SPATA31 subfamily E member 1)	SID315463907
-0.47	inactive	KCNIP1 (potassium voltage-gated channel interacting protein 1)	SID315456294
1.9	inactive	KCNIP1 (potassium voltage-gated channel interacting protein 1)	SID315456294
1.69	inactive	KCNIP1 (potassium voltage-gated channel interacting protein 1)	SID315456294
1.92	inactive	KCNIP1 (potassium voltage-gated channel interacting protein 1)	SID315456294
-0.4	inactive	SLC35G1	SID315462690
-0.03	inactive	SLC35G1	SID315462690
1.94	inactive	SLC35G1	SID315462690
0.55	inactive	SLC35G1	SID315462690
0.16	inactive	ISCU (iron-sulfur cluster assembly enzyme)	SID315455270
0.56	inactive	ISCU (iron-sulfur cluster assembly enzyme)	SID315455270
-0.82	inactive	ISCU (iron-sulfur cluster assembly enzyme)	SID315455270
-0.42	inactive	ISCU (iron-sulfur cluster assembly enzyme)	SID315455270
1.58	inactive	TMEM267 (transmembrane protein 267)	SID315458920
1.46	inactive	TMEM267 (transmembrane protein 267)	SID315458920
2.37	inactive	TMEM267 (transmembrane protein 267)	SID315458920
0.73	inactive	TMEM267 (transmembrane protein 267)	SID315458920
0.67	inactive	RELL1 (RELT like 1)	SID315465219
-0.27	inactive	RELL1 (RELT like 1)	SID315465219
-1.14	inactive	RELL1 (RELT like 1)	SID315465219
-1.05	inactive	RELL1 (RELT like 1)	SID315465219
-1.23	inactive	PARK7 (Parkinsonism associated deglycase)	SID315454750
-1.14	inactive	PARK7 (Parkinsonism associated deglycase)	SID315454750
-1.1	inactive	PARK7 (Parkinsonism associated deglycase)	SID315454750
-0.69	inactive	PARK7 (Parkinsonism associated deglycase)	SID315454750
1.37	inactive	COA8 (cytochrome c oxidase assembly factor 8)	SID315460340
0.05	inactive	COA8 (cytochrome c oxidase assembly factor 8)	SID315460340
2.32	inactive	COA8 (cytochrome c oxidase assembly factor 8)	SID315460340
0.24	inactive	COA8 (cytochrome c oxidase assembly factor 8)	SID315460340
2.48	inactive	ZNF227 (zinc finger protein 227)	SID315452292
1.74	inactive	ZNF227 (zinc finger protein 227)	SID315452292
1.46	inactive	ZNF227 (zinc finger protein 227)	SID315452292
0.39	inactive	ZNF227 (zinc finger protein 227)	SID315452292
-0.14	inactive	KCTD11 (potassium channel tetramerization domain containing 11)	SID315462313
1.49	inactive	KCTD11 (potassium channel tetramerization domain containing 11)	SID315462313
1.91	inactive	KCTD11 (potassium channel tetramerization domain containing 11)	SID315462313
1.38	inactive	KCTD11 (potassium channel tetramerization domain containing 11)	SID315462313
0.18	inactive	HERC3 (HECT and RLD domain containing E3 ubiquitin protein ligase 3)	SID315452928
1.43	inactive	HERC3 (HECT and RLD domain containing E3 ubiquitin protein ligase 3)	SID315452928
-0.29	inactive	HERC3 (HECT and RLD domain containing E3 ubiquitin protein ligase 3)	SID315452928
4.12	active	HERC3 (HECT and RLD domain containing E3 ubiquitin protein ligase 3)	SID315452928
-0.2	inactive	OR4C15 (olfactory receptor family 4 subfamily C member 15)	SID315459855
0.24	inactive	OR4C15 (olfactory receptor family 4 subfamily C member 15)	SID315459855
0.19	inactive	OR4C15 (olfactory receptor family 4 subfamily C member 15)	SID315459855
1.18	inactive	OR4C15 (olfactory receptor family 4 subfamily C member 15)	SID315459855
1.17	inactive	PSD (pleckstrin and Sec7 domain containing)	SID315450870
1.33	inactive	PSD (pleckstrin and Sec7 domain containing)	SID315450870
0.97	inactive	PSD (pleckstrin and Sec7 domain containing)	SID315450870
1.64	inactive	PSD (pleckstrin and Sec7 domain containing)	SID315450870
-1.08	inactive	WASHC4 (WASH complex subunit 4)	SID315455163
-0.96	inactive	WASHC4 (WASH complex subunit 4)	SID315455163
-0.73	inactive	WASHC4 (WASH complex subunit 4)	SID315455163
0.55	inactive	WDR54 (WD repeat domain 54)	SID315460162
0.41	inactive	WDR54 (WD repeat domain 54)	SID315460162
0.78	inactive	WDR54 (WD repeat domain 54)	SID315460162
0.21	inactive	WDR54 (WD repeat domain 54)	SID315460162
-0.82	inactive	CHRM2 (cholinergic receptor muscarinic 2)	SID315447919
-1.13	inactive	CHRM2 (cholinergic receptor muscarinic 2)	SID315447919
-0.71	inactive	CHRM2 (cholinergic receptor muscarinic 2)	SID315447919
0.67	inactive	CHRM2 (cholinergic receptor muscarinic 2)	SID315447919
0.17	inactive	RLF (RLF zinc finger)	SID315451137
-0.17	inactive	RLF (RLF zinc finger)	SID315451137
1.4	inactive	RLF (RLF zinc finger)	SID315451137
-0.18	inactive	RLF (RLF zinc finger)	SID315451137
-1.28	inactive	NUP54 (nucleoporin 54)	SID315456917
-0.98	inactive	NUP54 (nucleoporin 54)	SID315456917
-0.63	inactive	NUP54 (nucleoporin 54)	SID315456917
0.57	inactive	NUP54 (nucleoporin 54)	SID315456917
2.09	inactive	TFPT (TCF3 fusion partner)	SID315456186
-0.24	inactive	TFPT (TCF3 fusion partner)	SID315456186
-0.69	inactive	TFPT (TCF3 fusion partner)	SID315456186
-0.4	inactive	TFPT (TCF3 fusion partner)	SID315456186
0.8	inactive	PHF14 (PHD finger protein 14)	SID315453474
-0.35	inactive	PHF14 (PHD finger protein 14)	SID315453474
-1.74	active	PHF14 (PHD finger protein 14)	SID315453474
0.5	inactive	PHF14 (PHD finger protein 14)	SID315453474
-1.1	inactive	IL17RD (interleukin 17 receptor D)	SID315457143
-1.4	inactive	IL17RD (interleukin 17 receptor D)	SID315457143
-0.88	inactive	IL17RD (interleukin 17 receptor D)	SID315457143
0.37	inactive	IL17RD (interleukin 17 receptor D)	SID315457143

8 successive records already listed, quoted:
TNF reporter robust z-score	Outcome	gene	PubChem SID
-0.02	inactive	CCM2 (CCM2 scaffold protein)	SID315460034
1.78	inactive	SH2D2A (SH2 domain containing 2A)	SID315452998
1.82	inactive	SH2D2A (SH2 domain containing 2A)	SID315452998
1.74	inactive	SH2D2A (SH2 domain containing 2A)	SID315452998
1.8	inactive	SH2D2A (SH2 domain containing 2A)	SID315452998
-1.49	inactive	OR4N5 (olfactory receptor family 4 subfamily N member 5)	SID315464646
5.14	active	OR4N5 (olfactory receptor family 4 subfamily N member 5)	SID315464646
-1.38	inactive	OR4N5 (olfactory receptor family 4 subfamily N member 5)	SID315464646
